{
  "source": "paper PMC12699821",
  "about": "“STARD4 suppresses tumorigenesis and attenuates enzalutamide resistance via lipid metabolic reprogramming and AR stabilization in prostate cancer” (Journal of Experimental & Clinical Cancer Research : CR, 2025)",
  "binders": {"B1": {"name": "His-tagged STARD4 (natural protein, human (Gene ID 134429 is the human gene), UniProt Q96DR4 1-205, looked up)", "chain": "MEGLSDVASFATKLKNTLIQYHSIEEDKWRVAKKTKDVTVWRKPSEEFNGYLYKAQGVIDDLVYSIIDHIRPGPCRLDWDSLMTSLDILENFEENCCVMRYTTAGQLWNIISPREFVDFSYTVGYKEGLLSCGISLDWDEKRPEFVRGYNHPCGWFCVPLKDNPNQSLLTGYIQTDLRGMIPQSAVDTAMASTLTNFYGDLRKAL", "notes": "STARD4, Gene ID 134429, vector printed as pGMLV; also called His-STARD4; source: BL21 (Rosetta) bacterial cells, purified (protein purification kit)"}},
  "target": "Flag-AR-NTD (human (Gene ID 367 is the human gene))",
  "assay": "co-IP; 293T cells transfected with HA-labelled STARD4 and Flag-labelled AR or AR domain plasmids, western blotting",
  "note": "No constants are given. Whether binding was seen depends on the method and setting. In cells and extracts the contact can be indirect. A result given as binding can be weak or reduced; the word gives no strength. Tags and fused reporters may be left off the sequences shown.",
  "data": [
    {"binder": "B1", "values": [
      {"measurement": "binding", "result": "binds"}
    ]}
  ]
}
